Source: PMC12198979
Results are given in words; binding and its absence hold for the method and conditions named. Binding seen in cells or lysates may run through a third protein. Some results given as binding are weak or reduced against the parent protein; the word gives no strength. Tags and fused reporters may be left off the sequences shown.

The chains behind the UniProt entries cited, without tags or fusion partners.
UniProt O75530: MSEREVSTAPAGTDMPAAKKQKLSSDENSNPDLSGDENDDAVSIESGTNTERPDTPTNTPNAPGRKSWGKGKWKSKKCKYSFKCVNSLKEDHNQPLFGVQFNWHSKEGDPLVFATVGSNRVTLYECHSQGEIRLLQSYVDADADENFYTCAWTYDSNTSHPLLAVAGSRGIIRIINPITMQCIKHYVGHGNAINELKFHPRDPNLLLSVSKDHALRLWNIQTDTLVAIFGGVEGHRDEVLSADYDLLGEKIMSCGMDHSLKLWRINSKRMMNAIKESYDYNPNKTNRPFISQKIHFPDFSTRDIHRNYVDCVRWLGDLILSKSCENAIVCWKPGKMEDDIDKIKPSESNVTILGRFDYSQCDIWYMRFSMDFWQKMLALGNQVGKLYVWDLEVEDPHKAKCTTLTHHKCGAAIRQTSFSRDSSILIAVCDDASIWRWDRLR
UniProt Q09028: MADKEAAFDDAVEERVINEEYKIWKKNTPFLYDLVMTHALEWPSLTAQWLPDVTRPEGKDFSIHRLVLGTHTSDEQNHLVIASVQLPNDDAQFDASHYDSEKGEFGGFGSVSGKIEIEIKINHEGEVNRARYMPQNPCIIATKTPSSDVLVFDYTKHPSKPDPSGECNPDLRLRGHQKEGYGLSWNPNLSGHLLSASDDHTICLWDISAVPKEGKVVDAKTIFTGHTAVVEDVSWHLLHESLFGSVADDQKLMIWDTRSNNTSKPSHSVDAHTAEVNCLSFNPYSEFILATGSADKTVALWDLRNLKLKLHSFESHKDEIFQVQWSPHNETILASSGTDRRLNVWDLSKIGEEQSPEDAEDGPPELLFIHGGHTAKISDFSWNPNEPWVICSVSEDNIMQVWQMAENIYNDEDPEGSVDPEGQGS
UniProt Q15022: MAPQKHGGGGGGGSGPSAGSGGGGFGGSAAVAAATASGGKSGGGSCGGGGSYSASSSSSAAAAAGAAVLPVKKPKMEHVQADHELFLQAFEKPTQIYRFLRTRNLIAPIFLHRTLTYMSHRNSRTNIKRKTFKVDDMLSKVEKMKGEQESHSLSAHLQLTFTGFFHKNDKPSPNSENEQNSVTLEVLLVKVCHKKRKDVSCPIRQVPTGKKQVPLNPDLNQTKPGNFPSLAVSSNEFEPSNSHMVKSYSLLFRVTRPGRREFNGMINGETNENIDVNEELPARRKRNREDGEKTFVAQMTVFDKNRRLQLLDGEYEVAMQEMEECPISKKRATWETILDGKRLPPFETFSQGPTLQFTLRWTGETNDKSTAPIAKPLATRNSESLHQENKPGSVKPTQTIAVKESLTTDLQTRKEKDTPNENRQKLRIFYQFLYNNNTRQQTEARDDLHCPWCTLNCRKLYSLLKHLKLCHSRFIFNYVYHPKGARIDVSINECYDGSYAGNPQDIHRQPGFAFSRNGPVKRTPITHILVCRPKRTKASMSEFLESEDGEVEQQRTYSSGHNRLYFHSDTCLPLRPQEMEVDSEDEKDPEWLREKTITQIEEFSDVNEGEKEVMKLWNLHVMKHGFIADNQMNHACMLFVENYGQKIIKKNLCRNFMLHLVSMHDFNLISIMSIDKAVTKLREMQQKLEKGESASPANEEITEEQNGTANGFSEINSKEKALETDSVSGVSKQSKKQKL

T1: DEK-His-GFP (LAP-tag DEK fusion) (human) (UniProt P35659)
T1 sequence: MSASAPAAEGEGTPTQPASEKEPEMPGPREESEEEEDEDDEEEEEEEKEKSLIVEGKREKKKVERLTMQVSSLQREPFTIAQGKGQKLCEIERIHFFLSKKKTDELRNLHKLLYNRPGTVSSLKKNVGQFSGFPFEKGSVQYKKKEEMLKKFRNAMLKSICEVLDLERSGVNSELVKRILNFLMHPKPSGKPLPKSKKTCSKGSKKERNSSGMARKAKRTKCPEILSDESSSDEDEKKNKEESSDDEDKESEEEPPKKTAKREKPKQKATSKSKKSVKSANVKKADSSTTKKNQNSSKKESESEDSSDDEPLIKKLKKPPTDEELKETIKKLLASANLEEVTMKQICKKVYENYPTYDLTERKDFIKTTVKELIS

T2: DEK (full-length, untagged, doxycycline-induced from pTRIPZ) (human) (UniProt P35659)
T2 sequence: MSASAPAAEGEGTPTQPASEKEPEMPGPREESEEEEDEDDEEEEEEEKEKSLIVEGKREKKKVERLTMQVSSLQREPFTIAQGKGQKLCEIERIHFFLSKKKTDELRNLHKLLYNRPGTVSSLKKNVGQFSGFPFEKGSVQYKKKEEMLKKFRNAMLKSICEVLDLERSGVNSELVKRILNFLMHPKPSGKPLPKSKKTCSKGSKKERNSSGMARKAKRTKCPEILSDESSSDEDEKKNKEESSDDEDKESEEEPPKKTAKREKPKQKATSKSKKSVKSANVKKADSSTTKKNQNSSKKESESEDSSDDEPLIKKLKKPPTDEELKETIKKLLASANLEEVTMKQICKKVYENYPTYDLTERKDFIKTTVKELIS

T3: DEK-His-GFP (LAP-tag DEK fusion) (human), P35659
T3 chain: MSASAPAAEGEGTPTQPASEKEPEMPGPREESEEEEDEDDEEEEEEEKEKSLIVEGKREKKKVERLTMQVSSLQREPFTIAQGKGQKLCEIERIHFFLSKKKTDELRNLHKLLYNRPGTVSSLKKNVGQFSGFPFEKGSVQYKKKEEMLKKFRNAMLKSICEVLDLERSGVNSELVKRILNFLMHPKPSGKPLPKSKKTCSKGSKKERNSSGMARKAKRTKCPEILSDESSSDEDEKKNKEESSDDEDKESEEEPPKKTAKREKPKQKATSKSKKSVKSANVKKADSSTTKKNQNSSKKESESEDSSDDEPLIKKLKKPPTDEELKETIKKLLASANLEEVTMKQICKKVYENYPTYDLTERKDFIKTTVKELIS


Legend:
[1] = biological target: T1, DEK-His-GFP (LAP-tag DEK fusion) (human); experiment: co-IP; GFP-trap (LAP-tag immunoprecipitation): nuclear extract of tetracycline-induced HEK293 cells on GFP-trap beads, 1 h at 4°C; wash buffer 10 mM Tris-HCl pH 7.5, 150 mM NaCl, 0.5 mM EDTA; eluted with 0.2 M glycine pH 2.5; immunoblot
[2] = biological target: T2, DEK (full-length, untagged, doxycycline-induced from pTRIPZ) (human); experiment: co-IP; whole cell lysates of MCF10A pTRIPZ-DEK cells induced with doxycycline for 48 h; IP lysis buffer 25 mM NaCl, 25 mM Tris-HCl, 1 mM EDTA, 1% Nonidet P-40, 5% glycerol; immunoprecipitation with DEK or SUZ12 antibody overnight at 4°C, protein A/G agarose beads; immunoblot
[3] = biological target: T3, DEK-His-GFP (LAP-tag DEK fusion) …; experiment: co-IP; GFP-trap (LAP-tag immunoprecipitation): nuclear extract of tetracycline-induced HEK293 cells on GFP-trap beads, 1 h at 4°C; wash buffer 10 mM Tris-HCl pH 7.5, 150 mM NaCl, 0.5 mM EDTA; eluted with 0.2 M glycine pH 2.5; immunoblot; settings: remark: other sources report otherwise

binding [1]	Molecule	further results
binds	EED (from UniProt O75530 1-441)	–
binds	RBBP4 (from UniProt Q09028 1-425)	–
–	SUZ12 (from UniProt Q15022 1-739)	binding [2]: binds
–	endogenous DEK, P35659 1-375 (protein) MSASAPAAEGEGTPTQPASEKEPEMPGPREESEEEEDEDDEEEEEEEKEKSLIVEGKREKKKVERLTMQVSSLQREPFTIAQGKGQKLCEIERIHFFLSKKKTDELRNLHKLLYNRPGTVSSLKKNVGQFSGFPFEKGSVQYKKKEEMLKKFRNAMLKSICEVLDLERSGVNSELVKRILNFLMHPKPSGKPLPKSKKTCSKGSKKERNSSGMARKAKRTKCPEILSDESSSDEDEKKNKEESSDDEDKESEEEPPKKTAKREKPKQKATSKSKKSVKSANVKKADSSTTKKNQNSSKKESESEDSSDDEPLIKKLKKPPTDEELKETIKKLLASANLEEVTMKQICKKVYENYPTYDLTERKDFIKTTVKELIS	binding [3]: binds
